In paper PMC10750294:
These are yes or no findings as the source states them, for the method shown. For part of these data: In cells and extracts the contact can be indirect. Some results given as binding are weak or reduced against the parent protein; the word gives no strength. For part of these data: Tags and fused reporters may be left off the sequences shown. Blank lines part the entries; values can stand above or below the molecule they belong to.

The chains behind the UniProt entries cited, without tags or fusion partners.
UniProt P06748: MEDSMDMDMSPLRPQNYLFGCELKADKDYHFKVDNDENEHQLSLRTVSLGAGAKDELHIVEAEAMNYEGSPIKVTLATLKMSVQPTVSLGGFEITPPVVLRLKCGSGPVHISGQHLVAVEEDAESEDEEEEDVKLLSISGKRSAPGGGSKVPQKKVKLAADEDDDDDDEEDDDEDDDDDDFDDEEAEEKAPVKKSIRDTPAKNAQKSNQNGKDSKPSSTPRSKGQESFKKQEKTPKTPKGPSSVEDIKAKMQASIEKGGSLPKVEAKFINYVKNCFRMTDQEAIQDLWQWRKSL

Experiments:
[1] = target: T1, Mesencephalic astrocyte-derived neurotrophic factor (MANF) (human (endogenous in villi tissue of patients)) (UniProt P55145); test: co-IP; total proteins of villi tissue of URM patients in NP40 lysis buffer; magnetic beads with primary antibody (MANF or NPM1), overnight at 4 °C; western blotting
T1 sequence: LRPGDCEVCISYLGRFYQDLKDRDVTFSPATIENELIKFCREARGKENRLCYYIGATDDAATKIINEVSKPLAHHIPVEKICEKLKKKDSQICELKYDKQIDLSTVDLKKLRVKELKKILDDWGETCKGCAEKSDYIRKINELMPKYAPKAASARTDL

[2] = target: Nucleophosmin 1 (NPM1) (human (endogenous in villi tissue of patients)) (UniProt P06748); test: as above
GST-NPM1 = GST-NPM1 (UniProt P06748); test: pull-down; GST-NPM1 (or GST-labeled protein) on GST beads, 4 °C 4 h; HIS-MANF added, 4 °C overnight; PBS washes; western blotting; both purified

- binding [1]: binds
Molecule: Nucleophosmin 1 (NPM1) (from UniProt P06748 1-294)

- binding [2]: binds
B1: Mesencephalic astrocyte-derived neurotrophic factor (MANF) (protein, UniProt P55145 25-182)
chain: LRPGDCEVCISYLGRFYQDLKDRDVTFSPATIENELIKFCREARGKENRLCYYIGATDDAATKIINEVSKPLAHHIPVEKICEKLKKKDSQICELKYDKQIDLSTVDLKKLRVKELKKILDDWGETCKGCAEKSDYIRKINELMPKYAPKAASARTDL

- binding (GST-NPM1): binds
B2: HIS-MANF (protein, UniProt P55145 25-182)
chain: LRPGDCEVCISYLGRFYQDLKDRDVTFSPATIENELIKFCREARGKENRLCYYIGATDDAATKIINEVSKPLAHHIPVEKICEKLKKKDSQICELKYDKQIDLSTVDLKKLRVKELKKILDDWGETCKGCAEKSDYIRKINELMPKYAPKAASARTDL
